The effect of the compound repeats well; differences between the knockouts mostly do not.
Key:
Assay in all cases: relative cell number vs DMSO control (72 h) (% of DMSO); higher = less growth inhibition (more cells)
[1] = test system: BT-20
Description: (§1)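 QMAP-Seq: a pool of 5 breast cancer cell lines (ZR-75-1, SKBR3, HCC-38, MDA-MB-231, BT-20), each carrying 12 doxycycline-inducible Cas9 sgRNA perturbations (11 knockouts plus non-targeting sgNT), was treated with compounds for 72 h at four 10-fold doses (10 nM-10 uM or 1 nM-1 uM range). Barcodes were amplified and sequenced, and cell number was interpolated from 293T spike-in standard curves. The result is expressed as % of the median of DMSO wells. Two biological replicates.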

[2] = test system: SKBR3
Description: as §1

[3] = test system: ZR-75-1
Description: as §1

O=C(O)C(Cc1c[nH]c2ccccc12)N1C(=O)c2ccccc2C1=O (stereo not drawn) [RG108]
relative cell number
Settings | [1] | [2] | [3]
sgRNA knockout: sgATF3, 10 nM | 111 | 103 | 89.6
sgRNA knockout: sgATF3, 100 nM | 92.71 | 85.2 | 87.3
sgRNA knockout: sgATF3, 1000 nM | 89.8 | 109 | 74.3
sgRNA knockout: sgATF3, 10000 nM | 102 | 89.8 | 106
sgRNA knockout: sgATF4, 10 nM | 114 | 86.5 | 143.7
sgRNA knockout: sgATF4, 100 nM | 90.8 | 85.23 | 106
sgRNA knockout: sgATF4, 1000 nM | 91.4 | 97.4 | 110
sgRNA knockout: sgATF4, 10000 nM | 107 | 87.77 | 74.9
sgRNA knockout: sgATF6, 10 nM | 97.9 | 80.4 | 58.2
sgRNA knockout: sgATF6, 100 nM | 78.5 | 87.9 | 76.4
sgRNA knockout: sgATF6, 1000 nM | 99.1 | 84.9 | 128
sgRNA knockout: sgATF6, 10000 nM | 93.6 | 86.5 | 58.6
sgRNA knockout: sgATG7, 10 nM | 93.5 | 78.2 | 68
sgRNA knockout: sgATG7, 100 nM | 91.5 | 76.4 | 96.9
sgRNA knockout: sgATG7, 1000 nM | 102 | 98.5 | 89.6
sgRNA knockout: sgATG7, 10000 nM | 88.4 | 99.95 | 84.9
sgRNA knockout: sgERN1, 10 nM | 88.1 | 95.2 | 75.9
sgRNA knockout: sgERN1, 100 nM | 85.2 | 70.5 | 75
sgRNA knockout: sgERN1, 1000 nM | 86.4 | 107 | 90
sgRNA knockout: sgERN1, 10000 nM | 101 | 91.8 | 81.6
sgRNA knockout: sgHSF1, 10 nM | 90.9 | 76 | –
sgRNA knockout: sgHSF1, 100 nM | 90.7 | 92.3 | –
sgRNA knockout: sgHSF1, 1000 nM | 101 | 90.6 | –
sgRNA knockout: sgHSF1, 10000 nM | 98.8 | 96.2 | –
sgRNA knockout: sgHSF2, 10 nM | 69.5 | 92.8 | 75.7
sgRNA knockout: sgHSF2, 100 nM | 85.4 | 86.06 | 96.1
sgRNA knockout: sgHSF2, 1000 nM | 123 | 75.4 | 86.1
sgRNA knockout: sgHSF2, 10000 nM | 109 | 79.881 | 101
sgRNA knockout: sgKEAP1, 10 nM | 107 | 73.3 | –
sgRNA knockout: sgKEAP1, 100 nM | 91.6 | 77.7 | –
sgRNA knockout: sgKEAP1, 1000 nM | 96.19 | 86 | –
sgRNA knockout: sgKEAP1, 10000 nM | 97.6 | 86.6 | –
sgRNA knockout: sgNFE2L2, 10 nM | 94.8 | 88.2 | 111
sgRNA knockout: sgNFE2L2, 100 nM | 81.9 | 86.8 | 75.7
sgRNA knockout: sgNFE2L2, 1000 nM | 106 | 99.3 | 77.9
sgRNA knockout: sgNFE2L2, 10000 nM | 98.8 | 105.8 | 79
sgRNA knockout: sgSLC35F2, 10 nM | 89.8 | 88.4 | 69.3
sgRNA knockout: sgSLC35F2, 100 nM | 83.9 | 100 | 84.6
sgRNA knockout: sgSLC35F2, 1000 nM | 114 | 80.6 | 111
sgRNA knockout: sgSLC35F2, 10000 nM | 92.7 | 81.5 | 28
sgRNA knockout: sgXBP1, 10 nM | 85 | 89.3 | 103
sgRNA knockout: sgXBP1, 100 nM | 86.93 | 90 | 80.51
sgRNA knockout: sgXBP1, 1000 nM | 92.3 | 106 | 77.6
sgRNA knockout: sgXBP1, 10000 nM | 112 | 110 | 95.5

Cn1cnc2c(F)c(Nc3ccc(Br)cc3Cl)c(C(=O)NOCCO)cc21 [Selumetinib]
relative cell number
Settings | [1] | [2] | [3]
sgRNA knockout: sgATF3, 10 nM | 86.7 | 89.9 | 73.4
sgRNA knockout: sgATF3, 100 nM | 80 | 84.4 | 58.7
sgRNA knockout: sgATF3, 1000 nM | 95.8 | 91.1 | 87.6
sgRNA knockout: sgATF3, 10000 nM | 85.7 | 88.2 | 72.9
sgRNA knockout: sgATF4, 10 nM | 88 | 104 | 94.1
sgRNA knockout: sgATF4, 100 nM | 72.7 | 85.1 | 61.43
sgRNA knockout: sgATF4, 1000 nM | 86.1 | 91.2 | 93.1
sgRNA knockout: sgATF4, 10000 nM | 73.3 | 76.3 | 78
sgRNA knockout: sgATF6, 10 nM | 80.7 | 93.8 | 88.9
sgRNA knockout: sgATF6, 100 nM | 88.5 | 81 | 50.6
sgRNA knockout: sgATF6, 1000 nM | 99 | 105 | 72.3
sgRNA knockout: sgATF6, 10000 nM | 79 | 81.7 | 63.5
sgRNA knockout: sgATG7, 10 nM | 94 | 95.8 | 101
sgRNA knockout: sgATG7, 100 nM | 75.4 | 98.88 | 86.1
sgRNA knockout: sgATG7, 1000 nM | 78.5 | 99.8 | 75.7
sgRNA knockout: sgATG7, 10000 nM | 81.6 | 90.89 | 71.8
sgRNA knockout: sgERN1, 10 nM | 87.3 | 100 | 80.2
sgRNA knockout: sgERN1, 100 nM | 76.7 | 81.4 | 52.24
sgRNA knockout: sgERN1, 1000 nM | 66.6 | 94.3 | 94.1
sgRNA knockout: sgERN1, 10000 nM | 88 | 83.46 | 87.2
sgRNA knockout: sgHSF1, 10 nM | 81.2 | 110 | –
sgRNA knockout: sgHSF1, 100 nM | 81.2 | 80.9 | –
sgRNA knockout: sgHSF1, 1000 nM | 85.3 | 92.3 | –
sgRNA knockout: sgHSF1, 10000 nM | 82.1 | 76.3 | –
sgRNA knockout: sgHSF2, 10 nM | 94.6 | 85.9 | 91
sgRNA knockout: sgHSF2, 100 nM | 74.7 | 80.5 | 92.5
sgRNA knockout: sgHSF2, 1000 nM | 103 | 97.5 | 83.7
sgRNA knockout: sgHSF2, 10000 nM | 76.8 | 68.8 | 70.7
sgRNA knockout: sgKEAP1, 10 nM | 76.3 | 87.9 | –
sgRNA knockout: sgKEAP1, 100 nM | 78.7 | 97.2 | –
sgRNA knockout: sgKEAP1, 1000 nM | 92.6 | 99.2 | –
sgRNA knockout: sgKEAP1, 10000 nM | 78.8 | 65.5 | –
sgRNA knockout: sgNFE2L2, 10 nM | 88.3 | 89.4 | 106
sgRNA knockout: sgNFE2L2, 100 nM | 72.5 | 93.6 | 90.1
sgRNA knockout: sgNFE2L2, 1000 nM | 100 | 111 | 108
sgRNA knockout: sgNFE2L2, 10000 nM | 72.1 | 93.9 | 68.3
sgRNA knockout: sgSLC35F2, 10 nM | 86.3 | 71 | 80.2
sgRNA knockout: sgSLC35F2, 100 nM | 77.05 | 84.3 | 80.7
sgRNA knockout: sgSLC35F2, 1000 nM | 98.6 | 85 | 54.7
sgRNA knockout: sgSLC35F2, 10000 nM | 90.3 | 73.2 | 52.8
sgRNA knockout: sgXBP1, 10 nM | 88 | 101 | 99.7
sgRNA knockout: sgXBP1, 100 nM | 78 | 107 | 76.3
sgRNA knockout: sgXBP1, 1000 nM | 102 | 103 | 86.9
sgRNA knockout: sgXBP1, 10000 nM | 85 | 70 | 69.8
